Some of the results follow.

What all share (assay): glycan array binding signal (z-score within array); higher = stronger binding
Common to all, as to conditions: glycan notation: IUPAC condensed, linker removed

The target in one test is Neu5Ac(a2-8)Neu5Ac. An outline of the steps:
(§1)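 From the Consortium for Functional Glycomics database, 3228 arrays were curated, keeping only those whose protein sequence was available. Binding is given as a within-array Z-score averaged across arrays sharing a protein sequence and across linkers. Negative Z-scores can be read as non-binding.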

Test [1] concerns the target Neu5Ac(a2-8)Neu5Ac(a2-3)Gal(b1-4)Glc. An outline of the steps: as §1
Test [2] deals with Neu5Ac(a2-8)Neu5Ac(a2-3)[GalNAc(b1-4)]Gal(b1-4)Glc. In short, it runs like this: as §1
In test [3] the target is Neu5Ac(a2-8)Neu5Ac(a2-8)Neu5Ac. In short, it runs like this: as §1
Test [4] deals with Neu5Ac(a2-8)Neu5Ac(a2-8)Neu5Ac(a2-3)Gal(b1-4)Glc. An outline of the steps:
as §1

For test [5], the target named is Neu5Ac(a2-8)Neu5Ac(a2-8)Neu5Ac(a2-3)[GalNAc(b1-4)]Gal(b1-4)Glc. In short, it runs like this:
as §1

Test [6] addresses Neu5Ac(a2-8)Neu5Ac(a2-8)Neu5Ac(a2-8)Neu5Ac(a2-3)[GalNAc(b1-4)]Gal(b1-4)Glc. In short, it runs like this:
as §1

In test [7] the target is Neu5Ac(b2-6)Gal(b1-4)GlcNAc. In short, it runs like this: as §1
The target of the next test is Neu5Ac(b2-6)GalNAc. An outline of the steps:
as §1

Test [8] has as its target Neu5Ac9Ac(a2-3)Gal(b1-3)GlcNAc. An outline of the steps: as §1
Test [9] has as its target Neu5Ac9Ac(a2-3)Gal(b1-4)GlcNAc. In short, it runs like this:
as §1

Test [10] addresses Neu5Ac9Ac(a2-6)Gal(b1-4)GlcNAc. In short, it runs like this: as §1
For test [11], the target named is Neu5Gc(a2-3)Gal(b1-3)GlcNAc. In short, it runs like this:
as §1

For test [12], the target named is Neu5Gc(a2-3)Gal(b1-3)[Fuc(a1-4)]GlcNAc. In short, it runs like this: as §1
Another test has as its target Neu5Gc(a2-3)Gal(b1-4)Glc. In short, it runs like this: as §1
The target in test [13] is Neu5Gc(a2-3)Gal(b1-4)GlcNAc. In short, it runs like this:
as §1

Test [14] concerns the target Neu5Gc(a2-3)Gal(b1-4)[Fuc(a1-3)]GlcNAc. In short, it runs like this: as §1
For test [15], the target named is Neu5Gc(a2-6)Gal(b1-4)GlcNAc. An outline of the steps: as §1
The target in another test is Neu5Gc(a2-6)GalNAc. In short, it runs like this:
as §1

Test [16] addresses Neu5Gc(b2-6)Gal(b1-4)GlcNAc. In short, it runs like this:
as §1

B1: LERP (Drosophila melanogaster), B7Z0Q8 (protein)
chain: MRCSLQKDCAAPTQENFRQMRFPIVISLLLLLFCSGESVAADAANQLKFSTTECKLKEPIYGSTFDFSGLHSDLAHVVKSMNIGGDQFEFNICGNLSRTCNGESNVAACLKRQGKEYILGRQHELFYNNGNMFLKYKSGAKCDNGTADKPNYQLHVMFSCDYTLDAQPMHVTPYANEVCSFYISYRTPLACLSIPEGLQSNSCRVGDTKSNGTFDLMPLSDSNYHTSNRQGAFFVINVCKPVLYGENSMCPAGSSVCLFDSKATNPKERFINFGNVQTHPVVEKGQLLLRHESPTPCAKNSSANYTSVIYFSCDKFIRNAHPEFAGLGADSCTYQFNFATPLACNDLKPCTAFTSTNELLDLSSLSSKPARTLLKDGKNYTIAVCAHAGAPCQENGGACYEQNSTTISLGNSNSQLRFNQTGSLYLLYEDGAECSTATGMRRWSTKIEFVCANNATKDNGASTAGGSDSLKIIEDSNCQLLIQYQTPLACREPIRCKATTYVDHTNDGLGSSGDELIDLTPLISATDNYEARVELPASMEHLVPKTTKFFLNVCRPLVPKYQLGCAGGSAACMAKVTAAGAPEEERSMGFPLVSLTQRNRTFAELAYLKGDPCPTDNTSELSTHILFNCNMRAGRGQPVLRSVEDCAYRFEWETNVFCPPHECTFSADTCDLVHDELGRRFNFKSAPFTKDGKIEIDYNATKMSVNICGAHRKAMTDYSQALVNIFFTHESPNCGREGTMNVQIRLICSDQTESSSTISSDQQCNLLYVQRTPSICEFLSLGATQQNFESNGSTSSSTSSSSTSTTTSTTTQASPAGKPTKAATSTTTTTVGPDPAATPIGPTASVGTILGAILSVTFCVTCLGLLAFSPARRQRIRRLFRRSNSAVRYSRVQSNEEANLLLEPNGEFTESDDDMLL
Turning to B1, the “glycan array binding signal (z-score)” value in the test with Neu5Ac(a2-8)Neu5Ac is -0.852; in [1], -0.855; in test [2], -0.644; in [3], -0.319; in [4], -1.28; in test [5], -0.978. Also, the “glycan array binding signal (z-score)” value is -0.61 in [6]; 0.048 in test [7]; -0.401 with Neu5Ac(b2-6)GalNAc; -0.062 in [8]; -0.362 in test [9]; 1.31 in test [10]. Further, the “glycan array binding signal (z-score)” value in [11] is 0.176; in test [12], 0.556; with Neu5Gc(a2-3)Gal(b1-4)Glc, 0.631; in [13], -0.227; in test [14], -0.62; in test [15], -1.33. For the same molecule, the “glycan array binding signal (z-score)” value with Neu5Gc(a2-6)GalNAc is -0.673; in test [16], -1.73.
